This note sets out measurements from patent US20110144029A1, “Model Systems and Materials for the Study and Treatment of Neurodegenerative Diseases” (BOARD OF REGENTS, THE UNIVERSITY OF TEXAS SYSTEM, priority 2009, published 2011).

The data set has as its system HT-22 cells. As to the kind of experiment: Subcellular localization of FITC-tagged T-peptide by fluorescence microscopy. The data set is classed as cell-based. The following applies: 3 h treatment.

With “FITC-(Ahx)2-vqivyk-R9-NH2 [T-FITC-peptide]”, the cell entry entry is “enters the cell” and the subcellular localization result is “localizes predominantly in the nucleus”.
